According to patent publication US10280205B2, “Method for treating cancer with an activated T lymphocyte that selectively recognizes a cancer cell consisting of specific peptide” (immatics biotechnologies GmbH, priority 2015, dated 2019):

Tested on: HLA molecules from shock-frozen tissue samples
Assay: Identification and label-free relative LC-MS quantitation of HLA-presented peptides on tumor and normal tissue samples (presentation profiles, presentation scores)
Design: species or system human

Substance: 198 (KTINKVPTV; listed as Homo sapiens) [compound 198]
- number of ovarian cancers with detectable presentation: 8

Substance: 1 (SLMEPPAVLLL; listed as Homo sapiens) [compound 1]
- number of ovarian cancers with detectable presentation: 11

Substance: 560 (ALWDIETGQQTTT; listed as Homo sapiens) [compound 560]
- number of ovarian cancers with detectable presentation: 3

Substance: 512 (SLSEIVPCL; listed as Homo sapiens) [compound 512]
- number of ovarian cancers with detectable presentation: 3

Substance: 57 (TLAELQPPVQL; listed as Homo sapiens) [compound 57]
- number of ovarian cancers with detectable presentation: 5

Substance: 11 (KIFEMLEGV; listed as Homo sapiens) [compound 11]
- number of ovarian cancers with detectable presentation: 5

Substance: 184: peptide found in RNF213 (gene looked up) (YLMDINGKMWL; listed as Homo sapiens) [compound 184]
- number of ovarian cancers with detectable presentation: 5

Substance: 514 (ILVDWLVQV; listed as Homo sapiens) [compound 514]
- number of breast cancers with detectable presentation (breast cancers): 1
- number of cancer tissues with detectable presentation of the peptide (cancer tissues, total, FIG. 1D, 1L-1AE): 49
- number of cell lines and primary cultures with detectable presentation of the peptide (cell lines / primary cultures, FIG. 1D, 1L-1AE): 6
- peptide additionally detected on chronic lymphocytic leukemias (positive/tested samples) (chronic lymphocytic leukemias, sample set of FIG. 1A-1D): 2/12
- number of colon cancers with detectable presentation (colon cancers): 3
- peptide additionally detected on colorectal cancers (positive/tested samples) (colorectal cancers, sample set of FIG. 1A-1D): 5/28
- number of esophageal cancers with detectable presentation (esophageal cancers): 2
- peptide additionally detected on esophageal cancers (positive/tested samples) (esophageal cancers, sample set of FIG. 1A-1D): 2/17
- number of gallbladder cancers with detectable presentation (gallbladder cancers): 1
- number of leukemias with detectable presentation (leukemias): 2
- number of liver cancers with detectable presentation (liver cancers): 3
- peptide additionally detected on liver cancers (positive/tested samples) (liver cancers, sample set of FIG. 1A-1D): 2/16
- number of lung cancers with detectable presentation (lung cancers): 21
- peptide additionally detected on lung cancers (positive/tested samples) (lung cancers, sample set of FIG. 1A-1D): 17/91
- peptide additionally detected on melanomas (positive/tested samples) (melanomas, sample set of FIG. 1A-1D): 1/2
- number of normal bone marrows with detectable presentation (normal tissue: bone marrow): 2
- number of normal spleens with detectable presentation (normal tissue: spleen): 2
- number of normal tissues with detectable presentation of the peptide (normal tissues, total, FIG. 1D, 1L-1AE): 4
- number of ovarian cancers with detectable presentation: 7
- number of rectum cancers with detectable presentation (rectum cancers): 23
- number of skin cancers with detectable presentation (skin cancers): 1
- peptide additionally detected on small cell lung cancers (positive/tested samples) (small cell lung cancers, sample set of FIG. 1A-1D): 4/15
- number of stomach cancers with detectable presentation (stomach cancers): 4
- peptide additionally detected on stomach cancers (positive/tested samples) (stomach cancers, sample set of FIG. 1A-1D): 4/46
- number of testis cancers with detectable presentation (testis cancer): 1
- number of urinary bladder cancers with detectable presentation (urinary bladder cancers): 1
- peptide additionally detected on urinary bladder cancers (positive/tested samples) (urinary bladder cancers, sample set of FIG. 1A-1D): 1/4

Substance: 223 (ALLENIALYL; listed as Homo sapiens) [compound 223]
- Other relevant organs/cancerous diseases (additional tumor types on which the peptide was found: over-presented on more than 5% of the measured tumor samples, or presented on more than 5% with ratio of geometric means tumor vs normal tissues larger than 3): IALYL Esophageal Cancer, Urinary bladder Cancer

Substance: 587 (VMNDRLYAI; listed as Homo sapiens) [compound 587]
- number of ovarian cancers with detectable presentation: 9

Substance: 463 (SLVESHLSDQLTL; listed as Homo sapiens) [compound 463]
- number of ovarian cancers with detectable presentation: 5

Substance: 32 (KLDDLTQDLTV; listed as Homo sapiens) [compound 32]
- number of ovarian cancers with detectable presentation: 8
